The list does not hold the whole screen: it gathers tests that were run many times, whatever their T/C, doses with no T/C, and many T/C values between a quarter and a half above the control. Other doses and runs of a compound stand elsewhere. T/C is the treated group as % of the vehicle group. For survival time, the PubChem record calls one and a half times the control and up active, and a quarter to a half above the control has no call in these data; cut-offs in other NCI protocols can differ. Schedule codes are those of the source, read here as Q, the interval in days (D) or hours (H), X, the number of doses. Some schedule codes hold Z or #, which are not explained here. Some T/C values carry the count of animals alive at the toxicity check (mostly the fifth day); where none is given, no animal had died by that day.
System: BDF1 mice, L1210 leukemia sc
Experiment: NCI In Vivo Anticancer Drug Screen. Data for tumor model L1210 Leukemia (subcutaneous) in B6D2F1 (BDF1) mice
Details: higher T/C = longer survival
How it was run: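 Expressed as T/C: measurement in compound-treated, tumor-bearing mice relative to vehicle-treated control mice, based on survival or tumor size.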

[1] = T/C endpoint: median survival time, dose: 180.0 mg/kg/injection, schedule: Q01DX Z (sc), vehicle: methylcellulose (MC)
[2] = T/C endpoint: median survival time, dose: 300.0 mg/kg/injection, schedule: Q01DX Z (sc), vehicle: methylcellulose (MC)

CCCCCCCCCCCCCCCC(=O)OCC1OC(n2ccc(N)nc2=O)C(O)C1O (configuration not stated)
T/C (T/C endpoint: median survival time, dose: 18.75 mg/kg/injection, schedule: Q04DX003 (ip), vehicle: saline): 138 % of control | T/C (T/C endpoint: median survival time, dose: 37.5 mg/kg/injection, schedule: Q01DX009 (ip), vehicle: saline): 144 % of control | T/C (T/C endpoint: median survival time, dose: 75.0 mg/kg/injection, schedule: Q01DX009 (ip), vehicle: saline): 133 % of control | T/C (T/C endpoint: median survival time, dose: 150.0 mg/kg/injection, schedule: Q01DX009 (sc), vehicle: saline): 133 % of control | T/C (T/C endpoint: median survival time, dose: 300.0 mg/kg/injection, schedule: Q01DX001 (ip), vehicle: saline): 133 % of control | T/C (T/C endpoint: median survival time, dose: 300.0 mg/kg/injection, schedule: Q01DX001 (sc), vehicle: saline): 134 % of control | T/C (T/C endpoint: median survival time, dose: 300.0 mg/kg/injection, schedule: Q04DX003 (ip), vehicle: saline): 133 % of control | T/C (T/C endpoint: median survival time, dose: 300.0 mg/kg/injection, schedule: Q04DX003 (sc), vehicle: saline): 144 % of control | T/C (T/C endpoint: median survival time, dose: 600.0 mg/kg/injection, schedule: Q01DX001 (sc), vehicle: saline): 133 % of control

O=C1CN(CCN2CC(=O)NC(=O)C2)CC(=O)N1
T/C (T/C endpoint: median survival time, dose: 14.0 mg/kg/injection, schedule: Q03HX024 (sc), vehicle: Klucel (hydroxypropylcellulose) (HPC)): 145 % of control | T/C (T/C endpoint: median survival time, dose: 25.0 mg/kg/injection, schedule: Q01DX009 (sc), vehicle: steroid suspending solution): 125 % of control | T/C (T/C endpoint: median survival time, dose: 50.0 mg/kg/injection, schedule: Q01DX009 (ip), vehicle: steroid suspending solution): 130 % of control | T/C (T/C endpoint: median survival time, dose: 65.0 mg/kg/injection, schedule: Q01DX009 (sc), vehicle: Klucel (hydroxypropylcellulose) (HPC)): 135 % of control | T/C (T/C endpoint: median survival time, dose: 108.0 mg/kg/injection, schedule: Q01DX009 (sc), vehicle: Klucel (hydroxypropylcellulose) (HPC)): 140 % of control | T/C (T/C endpoint: median survival time, dose: 180.0 mg/kg/injection, schedule: Q01DX009 (sc), vehicle: Klucel (hydroxypropylcellulose) (HPC)): 130 % of control | T/C (T/C endpoint: median survival time, dose: 180.0 mg/kg/injection, schedule: Q04DX003 (sc), vehicle: Klucel (hydroxypropylcellulose) (HPC)): 135 % of control | T/C (T/C endpoint: median survival time, dose: 200.0 mg/kg/injection, schedule: Q01DX009 (sc), vehicle: steroid suspending solution): 130 % of control | T/C (T/C endpoint: median survival time, dose: 300.0 mg/kg/injection, schedule: Q04DX003 (sc), vehicle: Klucel (hydroxypropylcellulose) (HPC)): 145 % of control | T/C (T/C endpoint: median survival time, dose: 400.0 mg/kg/injection, schedule: Q04DX003 (ip), vehicle: steroid suspending solution): 125 % of control | T/C (T/C endpoint: median survival time, dose: 400.0 mg/kg/injection, schedule: Q04DX003 (sc), vehicle: steroid suspending solution): 145 % of control | T/C (T/C endpoint: median survival time, dose: 500.0 mg/kg/injection, schedule: Q04DX003 (sc), vehicle: Klucel (hydroxypropylcellulose) (HPC)): 140 % of control | T/C (T/C endpoint: median survival time, dose: 800.0 mg/kg/injection, schedule: Q04DX003 (ip), vehicle: steroid suspending solution): 135 % of control | T/C (T/C endpoint: median survival time, dose: 833.0 mg/kg/injection, schedule: Q04DX003 (sc), vehicle: Klucel (hydroxypropylcellulose) (HPC)): 140 % of control | T/C (T/C endpoint: median survival time, dose: 1388.0 mg/kg/injection, schedule: Q04DX003 (sc), vehicle: Klucel (hydroxypropylcellulose) (HPC)): 125 % of control

Nc1nc(=S)c2ncn(C3CC(O)C(CO)O3)c2[nH]1 (configuration not stated)
T/C (T/C endpoint: median survival time, dose: 300.0 mg/kg/injection, schedule: Q02DX005 (sc), vehicle: saline, evaluated on day 7): 145 % of control | T/C (T/C endpoint: median survival time, dose: 300.0 mg/kg/injection, schedule: Q02DX005 (sc), vehicle: saline, evaluated on day 30): 145 % of control

CN1c2c(nc(N)[nH]c2=O)NCC1CCNc1ccc(C(=O)NC(CCC(=O)O)C(=O)O)cc1 (configuration not stated)
T/C (T/C endpoint: median survival time, dose: 100.0 mg/kg/injection, schedule: Q01DX012 (ip), vehicle: other): 133 % of control | T/C (T/C endpoint: median survival time, dose: 200.0 mg/kg/injection, schedule: Q01DX012 (ip), vehicle: other): 144 % of control | T/C (T/C endpoint: median survival time, dose: 400.0 mg/kg/injection, schedule: Q01DX012 (ip), vehicle: other): 144 % of control

C[n+]1ccc(Nc2ccc(NC(=O)c3ccc(Nc4cc[n+](C)c5ccc(N)cc45)cc3N)cc2)cc1
T/C (T/C endpoint: median survival time, dose: 1.0 mg/kg/injection, schedule: Q03HX024 (ip), vehicle: water): 144 % of control | T/C (T/C endpoint: median survival time, dose: 8.0 mg/kg/injection, schedule: Q03HX008 (sc), vehicle: water): 130 % of control | T/C (T/C endpoint: median survival time, dose: 16.0 mg/kg/injection, schedule: Q04DX003 (sc), vehicle: water): 140 % of control | T/C (T/C endpoint: median survival time, dose: 32.0 mg/kg/injection, schedule: Q01DX001 (sc), vehicle: water): 130 % of control | T/C (T/C endpoint: median survival time, dose: 64.0 mg/kg/injection, schedule: Q03HX008 (sc), vehicle: water): 145 % of control

Nc1nncs1
T/C (T/C endpoint: median survival time, dose: 200.0 mg/kg/injection, schedule: Q04DX005 (sc), vehicle: Klucel (hydroxypropylcellulose) (HPC), evaluated on day 7): 140 % of control | T/C (T/C endpoint: median survival time, dose: 200.0 mg/kg/injection, schedule: Q04DX005 (sc), vehicle: Klucel (hydroxypropylcellulose) (HPC), evaluated on day 32): 135 % of control | T/C (T/C endpoint: median survival time, dose: 400.0 mg/kg/injection, schedule: Q04DX005 (sc), vehicle: Klucel (hydroxypropylcellulose) (HPC), evaluated on day 7): 140 % of control | T/C (T/C endpoint: median survival time, dose: 400.0 mg/kg/injection, schedule: Q04DX005 (sc), vehicle: Klucel (hydroxypropylcellulose) (HPC), evaluated on day 32): 135 % of control | T/C (T/C endpoint: median survival time, dose: 800.0 mg/kg/injection, schedule: Q04DX004 (sc), vehicle: water, evaluated on day 7): 139 % of control | T/C (T/C endpoint: median survival time, dose: 800.0 mg/kg/injection, schedule: Q04DX004 (sc), vehicle: water, evaluated on day 43): 139 % of control | T/C (T/C endpoint: median survival time, dose: 800.0 mg/kg/injection, schedule: Q04DX005 (sc), vehicle: Klucel (hydroxypropylcellulose) (HPC), evaluated on day 7): 133 % of control | T/C (T/C endpoint: median survival time, dose: 800.0 mg/kg/injection, schedule: Q04DX005 (sc), vehicle: Klucel (hydroxypropylcellulose) (HPC), evaluated on day 32): 130 % of control | T/C (T/C endpoint: median survival time, dose: 1600.0 mg/kg/injection, schedule: Q04DX005 (sc), vehicle: Klucel (hydroxypropylcellulose) (HPC), evaluated on day 7): 136 % of control | T/C (T/C endpoint: median survival time, dose: 1600.0 mg/kg/injection, schedule: Q04DX005 (sc), vehicle: Klucel (hydroxypropylcellulose) (HPC), evaluated on day 32): 135 % of control | T/C (T/C endpoint: median survival time, dose: 3200.0 mg/kg/injection, schedule: Q04DX005 (sc), vehicle: Klucel (hydroxypropylcellulose) (HPC), evaluated on day 7): 136 % of control | T/C (T/C endpoint: median survival time, dose: 3200.0 mg/kg/injection, schedule: Q04DX005 (sc), vehicle: Klucel (hydroxypropylcellulose) (HPC), evaluated on day 32): 135 % of control [7 of 8 alive]

CC(C)Sc1ncnc2nc[nH]c12
T/C [1]: 145 % of control | T/C [2]: 135 % of control

CN(Cc1cnc2nc(N[Si](C)(C)C)nc(N[Si](C)(C)C)c2n1)c1ccc(C(=O)NC(CCC(=O)O[Si](C)(C)C)C(=O)O[Si](C)(C)C)cc1 (configuration not stated)
T/C (T/C endpoint: mean survival time, dose: 4.0 mg/kg/injection, schedule: Q04DX003 (ip), vehicle: Klucel (hydroxypropylcellulose) (HPC)): 144 % of control | T/C (T/C endpoint: mean survival time, dose: 16.0 mg/kg/injection, schedule: Q04DX003 (ip), vehicle: Klucel (hydroxypropylcellulose) (HPC)): 148 % of control

CCCCSc1ncnc2nc[nH]c12
T/C (T/C endpoint: median survival time, dose: 64.8 mg/kg/injection, schedule: Q01DX Z (sc), vehicle: methylcellulose (MC)): 145 % of control | T/C (T/C endpoint: median survival time, dose: 108.0 mg/kg/injection, schedule: Q01DX Z (sc), vehicle: methylcellulose (MC)): 145 % of control | T/C [1]: 145 % of control | T/C [2]: 136 % of control [9 of 10 alive]

O=C(Nc1ccc(NC2=NCCN2)cc1)c1ccc(C(=O)Nc2ccc(NC3=NCCN3)cc2)cc1
T/C (T/C endpoint: median survival time, dose: 3.0 mg/kg/injection, schedule: Q01DX Z (sc), vehicle: water): 145 % of control | T/C (T/C endpoint: median survival time, dose: 23.0 mg/kg/injection, schedule: Q01DX Z (sc), vehicle: water): 140 % of control | T/C (T/C endpoint: median survival time, dose: 39.0 mg/kg/injection, schedule: Q01DX Z (sc), vehicle: water): 130 % of control
